# In paper PMC7819943, “Rice protein-binding microarrays: a tool to detect cis-acting elements near promoter regions in rice”:
# The chains behind the UniProt entries cited, without tags or fusion partners.
# UniProt Q0JBA9, entry or part of it: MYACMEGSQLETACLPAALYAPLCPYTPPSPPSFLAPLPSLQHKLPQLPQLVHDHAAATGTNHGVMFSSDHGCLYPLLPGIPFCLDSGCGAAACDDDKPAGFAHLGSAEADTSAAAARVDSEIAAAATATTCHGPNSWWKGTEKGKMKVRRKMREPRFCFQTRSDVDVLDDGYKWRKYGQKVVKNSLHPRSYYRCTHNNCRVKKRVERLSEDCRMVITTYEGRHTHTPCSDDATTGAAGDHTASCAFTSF
# The list shows a part of the results.
# Target: OsWRKY34 (Oryza sativa, UniProt Q0JBA9 1-250)
# Experiment: protein-binding microarray (RPBM); PBS, 2% BSA, 51.3 ng/ul salmon testes DNA, 50 uM zinc acetate, 200 nM TF, 25 C, 1 h; high values mean tight binding
# Settings: protein: recombinant; tags: N-terminal polyhistidine and DsRed monomer fusion (pET32a); label: CyDye5-dUTP incorporated in the synthesized complementary strand; 3' TTTTT single-stranded linker to array surface; dsDNA, one strand shown
# Outline: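 Ni–NTA purification followed expression in E. coli BL21-CodonPlus of transcription factors fused N-terminally to a polyhistidine tag and DsRed. At 200 nM in PBS with 2% BSA, salmon testes DNA and 50 µM zinc acetate, the protein was incubated for 1 h at 25 °C with a custom Agilent array that had been primer-extended with Cy5-dUTP and blocked with 2% BSA. After washing, the array was read on an Axon 4000B scanner. The binding signal is per-feature fluorescence intensity in arbitrary units.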
row,Sequence,binding signal
1,ACAACCCATTACTACTACTCCCTCATGCACCTGTAATTCTCGGAGTCACCTAGTGCAG,8650 fluorescence intensity (a.u.)
2,ATACCATTTCCTCATTTTCGATAACCGTGTGCCTATTCTCCGGAGTCACCTAGTGCAG,8890 fluorescence intensity (a.u.)
3,ATTTTATTTGGTTGTATGCATATACCTCCTGTTTTTTAAGCGGAGTCACCTAGTGCAG,8770 fluorescence intensity (a.u.)
4,TCTTCAATCCCAGCTTTGCCTCTAAATCCAGCAGACGCATCGGAGTCACCTAGTGCAG,9090 fluorescence intensity (a.u.)
5,TTTTGCAAAGTTTATTTGGAGGGCAGTTCAGTTTTCTTTTCGGAGTCACCTAGTGCAG,9380 fluorescence intensity (a.u.)
6,CTGGCGGCGATAGGTCGTCTTCCTCGTTGCCGGTCAGCACCGGAGTCACCTAGTGCAG,8380 fluorescence intensity (a.u.)
7,TTTACACTTGTATTCTAATTTTACGTTCTTTTTTATTTCTCGGAGTCACCTAGTGCAG,8750 fluorescence intensity (a.u.)
8,CCACACAATCTTGCCCTGTTTTTATTTGCCGCTTGTTAGTCGGAGTCACCTAGTGCAG,8040 fluorescence intensity (a.u.)
9,GCCCACCTCGCTGTCTCCACGCCCGACTTCGACGCCGCGGCGGAGTCACCTAGTGCAG,9100 fluorescence intensity (a.u.)
10,AAGGTGGGATATTTGAGGGGTTTTGTGGCTGTATTATTTGCGGAGTCACCTAGTGCAG,16100 fluorescence intensity (a.u.)
11,TTCAATGGAAGTATCAATCGTTGACCTTCCAACAATTATTCGGAGTCACCTAGTGCAG,8100 fluorescence intensity (a.u.)
12,TGGAGGCACATTAATTAATTATTATCATGATCCATTTGCCCGGAGTCACCTAGTGCAG,11600 fluorescence intensity (a.u.)
13,TCTCATCGCTGACAAACGCTTCGATTATTCTATCTCCGAACGGAGTCACCTAGTGCAG,8790 fluorescence intensity (a.u.)
14,TTGGCTACTTGGCTGGTTCTCTTGCTGTTCGAACAGCGCCCGGAGTCACCTAGTGCAG,9880 fluorescence intensity (a.u.)
15,CACCACCACTGAGCTGCCACTACTCATCCAGCTAACTAGGCGGAGTCACCTAGTGCAG,8030 fluorescence intensity (a.u.)
16,TGCTACTCATACTATTTTTCTTTCTTTTTTTCGCATAGCTCGGAGTCACCTAGTGCAG,8080 fluorescence intensity (a.u.)
17,TCTCTGGTTCCTCACTTTATTGATTAGCTTTTAAGATGGACGGAGTCACCTAGTGCAG,8280 fluorescence intensity (a.u.)
18,CTCCAACCTTTTTGTTTGTGTCTCATCATTGGCTGCTATACGGAGTCACCTAGTGCAG,13800 fluorescence intensity (a.u.)
19,CCACGCCGCACCCACCCACTGCCCGTTCCGTTCCGGCGACCGGAGTCACCTAGTGCAG,10900 fluorescence intensity (a.u.)
20,AGTCTAGGTCTTTCTTTGTCCTTAATTAATATATATTTGTCGGAGTCACCTAGTGCAG,12800 fluorescence intensity (a.u.)
21,TACGGACTCCTCACTTCTTCTTCTTCTTTTTTCTTTTTTTCGGAGTCACCTAGTGCAG,14300 fluorescence intensity (a.u.)
22,TGTTTCACCAGTGGTCAATTGCAACATTTGACCGATCGATCGGAGTCACCTAGTGCAG,12300 fluorescence intensity (a.u.)
23,ATGAGGGGTCGGGGTTGGGCGGCGTGGGCACGGGCTCGAGCGGAGTCACCTAGTGCAG,13000 fluorescence intensity (a.u.)
24,TTCTTTCAGTCTTTCTTTCTTCTTCTTGTTTGCTGATCTTCGGAGTCACCTAGTGCAG,8500 fluorescence intensity (a.u.)
25,AAATCTCTGAAGCTTGATGTCTGAACATGCTGTTCATTTCCGGAGTCACCTAGTGCAG,8720 fluorescence intensity (a.u.)
26,CCTAGTCGCCGCCGCCGCTCACGCCCTCCTCACTCTCGTCCGGAGTCACCTAGTGCAG,9760 fluorescence intensity (a.u.)
27,AACAGTGGTCATTGTGTTGCATCCCGAGTTCTCGTTCTCACGGAGTCACCTAGTGCAG,8480 fluorescence intensity (a.u.)

# Given bar-delimited: part of the list above
row | Sequence | binding signal
20 | AGTCTAGGTCTTTCTTTGTCCTTAATTAATATATATTTGTCGGAGTCACCTAGTGCAG | 12800 fluorescence intensity (a.u.)
21 | TACGGACTCCTCACTTCTTCTTCTTCTTTTTTCTTTTTTTCGGAGTCACCTAGTGCAG | 14300 fluorescence intensity (a.u.)
22 | TGTTTCACCAGTGGTCAATTGCAACATTTGACCGATCGATCGGAGTCACCTAGTGCAG | 12300 fluorescence intensity (a.u.)

# The listing continues:

row,Sequence,binding signal
1,GAGAGAGAGAGAGAGGGGAGGGGAGGGCGTGTGCTCGCGCCGGAGTCACCTAGTGCAG,10600 fluorescence intensity (a.u.)
2,TTCCCGAGGATATATAATCGATCATGCTACACGTGACATACGGAGTCACCTAGTGCAG,9140 fluorescence intensity (a.u.)
3,TTTGGTTTGGTTTGGTCTCGGTTCAGATCTTCTCTCCAAACGGAGTCACCTAGTGCAG,12700 fluorescence intensity (a.u.)
4,CGCATCCGCATCCATACGTCATCCGCATCCGCTTAAAAAACGGAGTCACCTAGTGCAG,8710 fluorescence intensity (a.u.)
5,TTTAACTTAGGGTGTGTTTGGTTGCTTGTATGTCCCTAGTCGGAGTCACCTAGTGCAG,10900 fluorescence intensity (a.u.)
6,GTTATAAGACATTTTGATTTTGGTCAAAGTAAAACTGCTTCGGAGTCACCTAGTGCAG,8210 fluorescence intensity (a.u.)
7,AACATCCATCACTGCAGCAAATCATCATCATCATCATCATCGGAGTCACCTAGTGCAG,8960 fluorescence intensity (a.u.)
8,TGATTTCTTCCACTGTCAGGTATCTCCTCCACCCTAGCCGCGGAGTCACCTAGTGCAG,8310 fluorescence intensity (a.u.)
9,CTTTCTCCGGATTCGAATCATTCCTCTCTATCTATCTCATCGGAGTCACCTAGTGCAG,11900 fluorescence intensity (a.u.)
10,CGCCTGCCTGCCGCCACCGCCACTCCACTTTGCTTCACCGCGGAGTCACCTAGTGCAG,9570 fluorescence intensity (a.u.)
11,GTGCGGCGGTGGGGTTGGTCGAGGCGGCCGAGGGCTCGTCCGGAGTCACCTAGTGCAG,9160 fluorescence intensity (a.u.)
12,GCGCCGCCGCCGTTCGTCCTGCTGCTTCCGCCGCATCCCGCGGAGTCACCTAGTGCAG,12000 fluorescence intensity (a.u.)
13,CGGATTTGCCCAATTTGGCTCGTGTGTGAAAGCCTCCAAACGGAGTCACCTAGTGCAG,8490 fluorescence intensity (a.u.)
14,CTTACGAGCCAGTCTTTGAAATTCATTTGGATTTGAATTTCGGAGTCACCTAGTGCAG,9790 fluorescence intensity (a.u.)
15,CGTCGTTAGGTTGTCCATAGCAGCCGAATTGTTTCTGCATCGGAGTCACCTAGTGCAG,8100 fluorescence intensity (a.u.)
16,AATTTATTTTGTTATGAGTTGTTTTATCACTTATAGTATTCGGAGTCACCTAGTGCAG,9560 fluorescence intensity (a.u.)
17,GCCAGCCCTTGAATCCTTATTAGCTCCGCCTCTGTCCTTCCGGAGTCACCTAGTGCAG,8680 fluorescence intensity (a.u.)
18,TACCTGCCCTTTCGTCTACCTCCAGTTCCTCTCTCTCTCTCGGAGTCACCTAGTGCAG,8850 fluorescence intensity (a.u.)
19,CACCAGCTACTAGTCGAGCACTCTCTCCATCCTATAAAAACGGAGTCACCTAGTGCAG,8600 fluorescence intensity (a.u.)
20,ATATAGCTTGTCATCGTACTTACTTCATTTGTTTAATTATCGGAGTCACCTAGTGCAG,9880 fluorescence intensity (a.u.)
21,CGTCTCGATCGTATCTACAACATACTGCTTCCAACCAACACGGAGTCACCTAGTGCAG,8250 fluorescence intensity (a.u.)
22,GGTAATAATTTGTTTAGCTCCTGGTTTGGAATGGTATATTCGGAGTCACCTAGTGCAG,10100 fluorescence intensity (a.u.)
23,CTTTTCTTTTTTCTTTTTCTCCGATTAATGTGGGAATTTCCGGAGTCACCTAGTGCAG,8180 fluorescence intensity (a.u.)
24,AAGCGGACATCTTTTCTTCCACCATCCTACTTTCCTGGTCCGGAGTCACCTAGTGCAG,14200 fluorescence intensity (a.u.)
25,AAGGGTGTGTTTGGATAATGAAAAATGGAGGGTGGAATTACGGAGTCACCTAGTGCAG,8560 fluorescence intensity (a.u.)
26,CTCGTCTTGGTAGGTGGTGGATGGCCGGCGCGGGGATCGACGGAGTCACCTAGTGCAG,10200 fluorescence intensity (a.u.)
27,GTGGTGGTGGTGTGTGAGCTCGGGGCTTGGGGTTTTGCGGCGGAGTCACCTAGTGCAG,13300 fluorescence intensity (a.u.)

# Rewritten with bars between the fields: entries from further up
row | Sequence | binding signal
4 | CGCATCCGCATCCATACGTCATCCGCATCCGCTTAAAAAACGGAGTCACCTAGTGCAG | 8710 fluorescence intensity (a.u.)
5 | TTTAACTTAGGGTGTGTTTGGTTGCTTGTATGTCCCTAGTCGGAGTCACCTAGTGCAG | 10900 fluorescence intensity (a.u.)
